The chains are these.
B1: Rpb7; numbered along this chain (parent)
chain: MFFIKDLSLNITLHPSFFGPRMKQYLKTKLLEEVEGSCTGKFGYILCVLDYDNIDIQRGRILPTDGSAEFNVKYRAVVFKPFKGEVVDGTVVSCSQHGFEVQVGPMKVFVTKHLMPQDLTFNAGSNPPSYQSSEDVITIKSRIRVKIEGCISQVSSIHAIGSIKEDYLGAI

In data set [1] the parent is B1. The data set is described as follows: log2 fold change of mutant abundance, UV-irradiated vs unirradiated; higher = more UV resistant (enriched after UV). Particulars: with Saccharomyces cerevisiae rad7Δ rad26Δ; UV dose (J/m2): 10; genetic background: rad7Δ rad26Δ rpb7Δ + plasmid RPB7 library; outgrowth: 10 cell divisions.
In data set [2] the parent is B1. The experiment in a line: NOISeq theta enrichment statistic, UV-irradiated vs unirradiated (dimensionless); higher = more UV resistant (enriched after UV). The following applies: with Saccharomyces cerevisiae rad7Δ rad26Δ; UV dose (J/m2): 10; genetic background: rad7Δ rad26Δ rpb7Δ + plasmid RPB7 library; outgrowth: 10 cell divisions.

Single values of this set are uncertain.

Turning to MFFIKDLSLNITLHPSFFGPRMKQYLKTKLLEEVEGSCTGKFGYILCVLDYDNIDIQRGRILPTDGSAEFNVKYRAVVFKPFKGEVVDGTVVSCSQHGFEVQVGPMKVFVTKHLMPQDLTFNAGSNPPSYQSSEDVITIKSRIRVKIEGCISQVSSIHAIGSIKEDYLGVI [A170V], in data set [1], the “log2 fold change of mutant abundance” value is -0.0667. The “NOISeq theta enrichment statistic” value in data set [2] was -0.223.
Turning to MFFIKDLSLNITLHPSFFGPRMKQYLKTKLLEEVEGSCTGKFGYILCVLDYDNIDIQRGRILPTDGSAEFNVKYRAVVFKPFKGEVVDGTVVSCSQHGFEVQVGPMKVFVTKHLMPQDLTFNAGSNPPSYQSTEDVITIKSRIRVKIEGCISQVSSIHAIGSIKEDYLGAI [S133T], the “log2 fold change of mutant abundance” value in data set [1] was 0.00573. The “NOISeq theta enrichment statistic” value in data set [2] came out at 0.0276.
In the case of MFFIKDLSLNITLHPSFFGPRMKQYLKTKLLEEVEGSCTGKFGYILCVLDYDNIDIQRGRILPTDGSAEFNVKYRAVVFKPFKGEVVDGTVVSCSQHGFEVQVGPMKVFVTKHLMPQDLTFNAGSNPPIYQSSEDVITIKSRIRVKIEGCISQVSSIHAIGSIKEDYLGAI [S129I], the “log2 fold change of mutant abundance” value in data set [1] is 0.11. Also, the “NOISeq theta enrichment statistic” value in data set [2] is 0.103.
With MFFIKDLSLNITLHPSFFGPRMKQYLKTKLLEEVEGSCTGKFGYILCVLDYDNIDIQRGRILPTDGSAEFNVKYRAVVFKPFKGEVVDGTVVSCSQHGFEWQVGPMKVFVTKHLMPQDLTFNAGSNPPSYQSSEDVITIKSRIRVKIEGCISQVSSIHAIGSIKEDYLGAI [V101W], the “log2 fold change of mutant abundance” value in data set [1] was -0.00921. In addition, in data set [2], the “NOISeq theta enrichment statistic” value was -0.019.
In the case of MFFIKDLSLNITLHPSFFGPRMKQYLKTKLLEEVEGSCTGKFGYILCVLDYDNIDIQRGRILPTDGSAEFNVKYRAVVFKPFKGEVVDGTVVSCSQHGFEVQVGPMKVFVTKHLMPQDLTFNAGSNPPSYQSSEDVITIHSRIRVKIEGCISQVSSIHAIGSIKEDYLGAI [K140H], the “log2 fold change of mutant abundance” value in data set [1] came out at 0.211. Besides, in data set [2], the “NOISeq theta enrichment statistic” value came to 0.153.
For MFFIKDLSLNITLHPSFFGPRMKQYLKTKLLEEVEGSCTGKFGYILCVLDYDNIDIQRGRILPTDGSAEFNVKYRAVVFKPFKGEVVDGTVVSCSQHGFEVQVGPMKVFVTKHLMPQDLTFNAGSNPPSYQSSEGVITIKSRIRVKIEGCISQVSSIHAIGSIKEDYLGAI [D135G], the “log2 fold change of mutant abundance” value in data set [1] was -0.412. In addition, the “NOISeq theta enrichment statistic” value in data set [2] was -1.01.
Turning to MFFIKDLSLNITLHPSFFGPRMKQYLKTKLLEEVEGSCTGKFGYILCVLDYDNIDIQRGRILPTDGSAEFNVKYRAVVFKPFKGEVVDGTVVSCSQHGFEVQVGPMKVFVTKHLMPQDLTFNAGSNPPSYQSSEDVITIKSRIRVKIEGCISQVSSIHAIGSIKEHYLGAI [D166H], the “log2 fold change of mutant abundance” value in data set [1] is -0.544. Also, the “NOISeq theta enrichment statistic” value in data set [2] is -0.448.
In the case of MFFIKDLSLNITLHPSFFGPRMKQYLKTKLLEEVEGSCTGKFGYILCVLDYDNIDIQRGRILPTDGSAEFNVKYRAVVFKPFKGEVVDGTVVSCSQHGFEVQVGPMKVFVTKHLMPQDLTFNAGSNPPSYQSSEDVITIKSRIRVHIEGCISQVSSIHAIGSIKEDYLGAI [K146H], the “log2 fold change of mutant abundance” value in data set [1] worked out at 1.68. The “NOISeq theta enrichment statistic” value in data set [2] is 0.747.
For MFFIKDLSLNITLHPSFFGPRMKQYLKTKLLEEVEGSCTGKFGYILCVLDYDNIDIQRGRILPTDGSAEFNVKYRAVVFKPFKGEVVDGTVVSCSQHGFEVQVGPMKVFVTKHLMPQDLTFNAGSNPPSEQSSEDVITIKSRIRVKIEGCISQVSSIHAIGSIKEDYLGAI [Y130E], the “log2 fold change of mutant abundance” value in data set [1] is 0.358. In addition, the “NOISeq theta enrichment statistic” value in data set [2] amounted to 0.146.
MFFIKDLSLNITLHPSFFGPRMKQYLKTKLLEEVEGSCTGKFGYILCVLDYDNIDIQRGRILPTDGSAEFNVKYRAVVFKPFKGEVVDGTVVSCSQHGFEVQVGPMKRFVTKHLMPQDLTFNAGSNPPSYQSSEDVITIKSRIRVKIEGCISQVSSIHAIGSIKEDYLGAI [V108R]: in data set [1], the “log2 fold change of mutant abundance” value is -0.0533. Further, in data set [2], the “NOISeq theta enrichment statistic” value is -0.0682.
Taken in the same sequence, the figures for MFFIKDLSLNITLHPSFFGPRMKQYLKTKLLEEVEGSCTGKFGYILCVLDYDNIDIQRGRILPTDGSAEFNVKYRAVVFKPFKGEVVDGTVVSCSNHGFEVQVGPMKVFVTKHLMPQDLTFNAGSNPPSYQSSEDVITIKSRIRVKIEGCISQVSSIHAIGSIKEDYLGAI [Q96N] were 0.0729 and 0.151.
For MFFIKDLSLNITLHPSFFGPRMKQYLKTKLLEEVEGSCTGKFGYILCVLDYDNIDIQRGRILPTDGSAEFNVKYRAVVFKPFKGEVVDGTVVSCSQHGFEVQVGPMKVFVTKHLMPQDLTFNAGSNPPSYQSSEDVITIKSRIRVKIEGCISQVSSIHTIGSIKEDYLGAI [A159T] the same measures were 0.144 and 0.608.
For MFFIKDLSLNITLHPSFFGPRMKQYLKTKLLEEVGGSCTGKFGYILCVLDYDNIDIQRGRILPTDGSAEFNVKYRAVVFKPFKGEVVDGTVVSCSQHGFEVQVGPMKVFVTKHLMPQDLTFNAGSNPPSYQSSEDVITIKSRIRVKIEGCISQVSSIHAIGSIKEDYLGAI [E35G], the “log2 fold change of mutant abundance” value in data set [1] is -0.096. In addition, the “NOISeq theta enrichment statistic” value in data set [2] is -0.186.
Take MFFIKDLSLNITLHPSFFGPRMKQYLKTKLLEEVEGSCTGKFGYILCVLDYDNIDIQRGRILPTDGSAEFNVKYRAVVFKPFKGEVVDGTVVSCSQHGFEVQVGPMKVFVTKHLMPQDLTFNAGSNPPSYQSSEDVITIKSRIRVKIEGCYSQVSSIHAIGSIKEDYLGAI [I151Y]: the “log2 fold change of mutant abundance” value in data set [1] came out at 0.0605. The “NOISeq theta enrichment statistic” value in data set [2] is 0.0415.
Taken in the same sequence, the figures for MFFIKDLSLNITLHPSFFGPRMKQYLKTKLLEEVEGSCTGKFGYILCVLDYDNIDIQRGRILPTDGSAEFNVKYRAVVFKPFKGEVVDGTVVSCSQHGFEVQVGPMKVFVTKHLMPQDLTFNAGSHPPSYQSSEDVITIKSRIRVKIEGCISQVSSIHAIGSIKEDYLGAI [N126H] were -0.097 and -0.185.
Consider MFFIKDLSLNITLHPSFFGPRMKQYLKTKLLEEVEGSCTGKFGYILCVLDYDNIDIQRGRILPTDGSAEFNVKYRAVVFKPFKGEVVDGTVVSCSQHGFEVQVGPMKVFVTKHLMPQDLTFNAGSNPPSYQSSEDVITIKSRIRVKIEGCIQQVSSIHAIGSIKEDYLGAI [S152Q], for which the “log2 fold change of mutant abundance” value in data set [1] was -0.0489. Also, the “NOISeq theta enrichment statistic” value in data set [2] is -0.0327.
MFFIKDLSLNITLHPSFFGPRMKQYLKTKLLEEVEGSCTGKFGYILCVLDYVNIDIQRGRILPTDGSAEFNVKYRAVVFKPFKGEVVDGTVVSCSQHGFEVQVGPMKVFVTKHLMPQDLTFNAGSNPPSYQSSEDVITIKSRIRVKIEGCISQVSSIHAIGSIKEDYLGAI [D52V]: in data set [1], the “log2 fold change of mutant abundance” value was 0.064. In addition, the “NOISeq theta enrichment statistic” value in data set [2] is 0.293.

These data come from the supplement of paper PMC10382679.
